Data published in patent publication US11897881B1, “Substituted pyrido[3,4-b]indole-3-carboxylic acids as CK2 inhibitors” (KING FAISAL UNIVERSITY, priority 2023, dated 2024).

What was measured:
Assay type in all cases: cell-based
PC3 (prostate) = assay: In vitro cytotoxic activity assay (MTT), PC3; conditions: Homo sapiens, Prostate cell; PC3 (prostate) cells, exposed for 96 hours; read-out: IC50, 50% inhibition of cell proliferation
Experimental: (§1) Compounds 1-15 were screened for their in vitro cytotoxic activity utilizing a 3-(4,5-dimethyl-thiazol-2-yl)-2,5-diphenyltetrazolium bromide (MTT) assay against selected cancer human cell lines consisting of PC3 (prostate), HCT116 (colon), A375 (melanoma), H1299 (lung), MIAPaCa-2 (pancreas), HL60 (leukemia), MCF7 (breast), MDA-MB-231 (breast) (T. Mosmann, J. Immunol. Meth., 1983, 65, 55-63). The cells were cultured at 37° C. in RMPI1640 medium supplemented with 10% fetal bovine serum, 50 IU/mL penicillin, and 50 μg/mL streptomycin in a 5% CO2 incubator. All cells were sub-cultured 3 times/week by trypsinisation. Viable cells were seeded and allowed to adhere for 12 h before a test drug was added in 96-well plates at an initial density of 1.0×10^5 cells/mL. Tumour cell lines were separately exposed to various concentrations of the tested compounds followed by incubation at a temperature of 37° C. during 96 h inside a medium of fresh RMPI 1640. Cells were subsequently incubated at 37° C. using MTT at 0.5 mg/mL during 4 h. After removal of supernatant, formazan crystals were dissolved in isopropanol and the optical density was measured at 570 nm. CX-4945 was used as a positive control.

HCT116 (colon) = assay: In vitro cytotoxic activity assay (MTT), HCT116; conditions: Homo sapiens, HCT-116; HCT116 (colon) cells, exposed for 96 hours; read-out: IC50, 50% inhibition of cell proliferation
Experimental: as §1

A375 (melanoma) = assay: In vitro cytotoxic activity assay (MTT), A375; conditions: Homo sapiens, A-375; A375 (melanoma) cells, exposed for 96 hours; read-out: IC50, 50% inhibition of cell proliferation
Experimental: as §1

H1299 (lung) = assay: In vitro cytotoxic activity assay (MTT), H1299; conditions: Homo sapiens, NCI-H1299; H1299 (lung) cells, exposed for 96 hours; read-out: IC50, 50% inhibition of cell proliferation
Experimental: as §1

MIAPaCa-2 (pancreas) = assay: In vitro cytotoxic activity assay (MTT), MIAPaCa-2; conditions: Homo sapiens, MIA PaCa-2; MIAPaCa-2 (pancreas) cells, exposed for 96 hours; read-out: IC50, 50% inhibition of cell proliferation
Experimental: as §1

HL60 (leukemia) = assay: In vitro cytotoxic activity assay (MTT), HL60; conditions: Homo sapiens, HL-60; HL60 (leukemia) cells, exposed for 96 hours; read-out: IC50, 50% inhibition of cell proliferation
Experimental: as §1

MCF7 (breast) = assay: In vitro cytotoxic activity assay (MTT), MCF7; conditions: Homo sapiens; MCF7 (breast) cells, exposed for 96 hours; read-out: IC50, 50% inhibition of cell proliferation
Experimental: as §1

MDA-MB-231 (breast) = assay: In vitro cytotoxic activity assay (MTT), MDA-MB-231; conditions: Homo sapiens; MDA-MB-231 (breast) cells, exposed for 96 hours; read-out: IC50, 50% inhibition of cell proliferation
Experimental: as §1

In the case of `O=C(O)c1ccc2c(c1)nc(Nc1cccc(Cl)c1)c1ccncc12` [CX-4945, reference compound], the IC50 (PC3 (prostate)) is reported as 2000 nM, the IC50 (HCT116 (colon)) is reported as 2300 nM and the IC50 (A375 (melanoma)) is reported as 4100 nM. The IC50 (H1299 (lung)) was 2300 nM, the IC50 (MIAPaCa-2 (pancreas)) was 1000 nM and the IC50 (HL60 (leukemia)) was 3700 nM. For the same compound, the IC50 (MCF7 (breast)) was 9100 nM and the IC50 (MDA-MB-231 (breast)) was 6200 nM.
